{"sequences": {"note": "Protein sequences, listed by entry. Tags and fused reporters are not part of them.", "UniProt O00167, whole entry, looked up": "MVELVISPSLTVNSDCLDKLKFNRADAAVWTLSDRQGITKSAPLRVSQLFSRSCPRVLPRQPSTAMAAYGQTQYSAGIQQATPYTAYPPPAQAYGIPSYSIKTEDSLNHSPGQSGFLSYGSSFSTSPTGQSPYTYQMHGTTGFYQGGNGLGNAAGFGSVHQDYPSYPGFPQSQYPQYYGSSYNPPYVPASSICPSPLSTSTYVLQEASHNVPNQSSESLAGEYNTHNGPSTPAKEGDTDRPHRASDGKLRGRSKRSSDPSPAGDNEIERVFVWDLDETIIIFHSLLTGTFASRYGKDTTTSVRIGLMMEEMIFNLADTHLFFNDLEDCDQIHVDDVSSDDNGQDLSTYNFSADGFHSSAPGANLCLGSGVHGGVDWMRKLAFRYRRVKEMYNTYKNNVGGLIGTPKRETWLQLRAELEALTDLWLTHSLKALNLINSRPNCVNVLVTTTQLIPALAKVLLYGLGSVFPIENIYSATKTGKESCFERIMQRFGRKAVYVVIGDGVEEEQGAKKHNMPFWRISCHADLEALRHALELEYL"}, "source": "PubChem BioAssay AID488837", "about": "(National Center for Advancing Translational Sciences (NCATS), 2010)", "note": "Hit rate of the full screen: of about 330,000 compounds, about 20 (0.006%) were called active. The shares of active, inactive and inconclusive entries below differ from those in the screen. Calls come from the whole dose curve; as a rule, active = well fitted inhibition curve with a large enough effect; inconclusive = small, poorly fitted or top-dose-only effect, or effect the other way; inactive = flat fitted curve, though single readings scatter. Potencies of inconclusive entries are doubtful fits and often do not repeat. Peptide text beside a SMILES is read from it. * marks the point of attachment. Boc = CC(C)(C)OC(=O)*; OtBu = CC(C)(C)O*"}
{"target": "Protein phosphatase EYA2 (Homo sapiens) (UniProt O00167)", "experiment": "qHTS Assay for Inhibitors of the Phosphatase Activity of Eya2; note: potency is the fitted concentration of half-maximal effect; for activity, negative = inhibition: % is set by controls: 0 for no effect and ±100 for the full control effect", "conditions": "recombinant Eya2, OMFP fluorescence dephosphorylation (OMFP is methylfluorescein phosphate); activity, negative = inhibition: at 76.9 µM (top of the series) unless noted", "outline": "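Eya2 (0.2 uM) preincubated 10 min at ambient with compound, then OMFP substrate added at 50 uM; 10 min reaction in 50 mM HEPES pH 7.5, 50 mM NaCl, 5 uM MgCl2, 0.05% BSA, 1 mM DTT. Fluorescence read at Ex 485/Em 525 nm.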"}
{"smiles": "O=C(Nn1cnc2ccccc2c1=O)c1ccc(Cl)c([N+](=O)[O-])c1", "Potency": "inconclusive: 631 µM [inhibitor, partial curve, poor fit]"}
{"smiles": "O=C(Nc1nc2c(s1)CN(Cc1ccccc1)CC2)c1cccc(S(=O)(=O)N2CCc3ccccc32)c1", "Potency": "inactive"}
{"smiles": "Clc1ccc(-c2cnc(Oc3ccccc3)nc2)cc1", "Potency": "inconclusive: 20 µM [inhibitor, single point]"}
{"smiles": "O=C(O)CN1C(=O)/C(=C/c2ccc(N3CCCCC3)o2)SC1=S", "Potency": "inconclusive: 251 µM [activator, partial curve]"}
{"smiles": "Cc1cccc(C)c1NC(=O)N1CC(C)OC(C)C1", "note": "(stereo unspecified)", "Potency": "inconclusive: 17.8 µM [inhibitor, single point]"}
{"smiles": "Cc1ccsc1/C=N/NC(=S)NCCc1ccccc1", "Potency": "inconclusive: 25.1 µM [inhibitor, single point]"}
{"smiles": "COc1ccccc1-c1ccc(/C=C2\\C=CC(=O)O2)o1", "activity, negative = inhibition": "inconclusive: 63.8% [activator]"}
{"smiles": "COc1ccc2c(CC(=O)Nc3ccccc3OC)coc2c1", "Potency": "inconclusive: 31.6 µM [inhibitor, partial curve, poor fit]"}
{"smiles": "COc1ccccc1OCCNc1ccc(S(=O)(=O)N2CCCC2)cn1", "Potency": "inconclusive: 70.8 µM [inhibitor, partial curve, poor fit]"}
{"smiles": "COc1ccc(-c2cn3c(C)c(C(=O)N4CCN(c5ccccc5F)CC4)sc3n2)cc1", "Potency": "inconclusive: 22.4 µM [inhibitor, single point]"}
{"smiles": "COc1ccc(CCNC(=O)CN(c2cc(OC)ccc2OC)S(=O)(=O)c2ccccc2)cc1", "Potency": "inconclusive: 25.1 µM [inhibitor, single point]"}
{"smiles": "Cc1ccc(C)c(-n2cc(CNCCc3cnccn3)c(-c3ccccc3)n2)c1", "Potency": "inactive"}
{"smiles": "COc1ccccc1C(=O)Nc1cccc(NC(=O)c2ccccc2OC)n1", "Potency": "inconclusive: 100 µM [inhibitor, single point]"}
{"smiles": "CCNc1nc(NCC)nc(N(C)N)n1", "Potency": "inconclusive: 25.1 µM [inhibitor, single point]"}
{"smiles": "CC1CCN(c2ccccc2NC(=S)NC(=O)c2cccs2)CC1", "Potency": "inconclusive: 100 µM [inhibitor, single point]"}
{"smiles": "COc1ccc(OC)c(N/C(C)=C/C(=O)c2ccc(C)o2)c1", "Potency": "inconclusive: 79.4 µM [inhibitor, single point]"}
{"smiles": "CC1=C(C#N)CCC(=O)N1Cc1c(F)cccc1Cl", "Potency": "inconclusive: 79.4 µM [inhibitor, single point]"}
{"smiles": "Cc1c(C(=O)NN)sc(=S)n1C", "Potency": "inconclusive: 112 µM [inhibitor, single point]"}
{"smiles": "Cn1c(SCc2c(Cl)cccc2Cl)nnc1-c1ccc2nonc2c1", "Potency": "inconclusive: 100 µM [inhibitor, single point]"}
{"smiles": "c1nc2sc3c(c2c2nnnn12)CCCC3", "Potency": "inactive"}
{"smiles": "O=C(NCSc1ccncn1)c1ccccc1", "Potency": "inconclusive: 22.4 µM [inhibitor, single point]"}
{"smiles": "Brc1ccccc1C1=Nn2c(nnc2-c2ccco2)SC1", "Potency": "inconclusive: 100 µM [inhibitor, single point]"}
{"smiles": "O=C(NC(=S)Nc1ccccc1N1CCN(C(=O)c2ccccc2)CC1)c1ccccc1F", "Potency": "inactive"}
{"smiles": "Cc1ccc(S(=O)(=O)CC(=O)Nc2ccc(F)c(F)c2F)cc1", "Potency": "inconclusive: 17.8 µM [inhibitor, single point]"}
{"smiles": "CCOC(=O)c1oc2ccc3c(c2c1C)C(=O)CC1(CCN(C(=O)OCC)CC1)O3", "Potency": "inactive"}
{"smiles": "O=C(O)CCC(NC(=O)c1cncc(O)c1)C(=O)O", "note": "(stereo unspecified)", "Potency": "inactive"}
{"smiles": "CCN(c1ccccc1)C1(O)C(=O)c2ccccc2C1=O", "Potency": "inconclusive: 100 µM [inhibitor, single point]"}
{"smiles": "COCCCNC(=O)CNC(=O)c1cn(-c2ccccc2OC)c(=O)c2ccccc12", "Potency": "inactive"}
{"smiles": "O=C1c2ccccc2-c2cccc(NS(=O)(=O)c3ccc(C(F)(F)F)cc3)c21", "Potency": "inactive"}
{"smiles": "Cc1ccc2c(c1)-n1c(nc3ccc(C)cc3c1=O)C(Cc1ccc(O)cc1)NC2=O", "note": "(stereo unspecified)", "Potency": "inconclusive: 63.1 µM [inhibitor, single point]"}
{"smiles": "Cn1c(SCC(N)=O)nnc1-c1ccc(S(=O)(=O)N2CCCC2)cc1", "Potency": "inconclusive: 100 µM [inhibitor, single point]"}
{"smiles": "COc1cccc(/C=N/NC(=O)C(c2ccncc2)N2CCOCC2)c1", "note": "(stereo unspecified)", "Potency": "inactive"}
{"smiles": "O=C(NCCc1ccc(Cl)cc1)c1ccc2nc[nH]c2c1", "Potency": "inconclusive: 22.4 µM [inhibitor, single point]"}
{"smiles": "COC(=O)c1cccc(NC(=S)NCc2ccco2)c1", "Potency": "inconclusive: 100 µM [inhibitor, single point]"}
{"smiles": "S=c1[nH]nc(-c2cc(-c3ccccc3)n[nH]2)n1/N=C/c1ccc(Cl)cc1", "Potency": "inconclusive: 562 µM [inhibitor, single point]"}
{"smiles": "CC(CCc1ccccc1)NS(=O)(=O)c1ccccc1", "note": "(stereo unspecified)", "Potency": "inactive"}
{"smiles": "Cc1cc(C)cc(OCC(=O)N(Cc2ccc(N(C)C)cc2)C2CCS(=O)(=O)C2)c1", "note": "(stereo unspecified)", "Potency": "inactive"}
{"smiles": "COc1ccc(CCNc2cn[nH]c(=O)c2Cl)cc1OC", "Potency": "inconclusive: 31.6 µM [inhibitor, partial curve, poor fit]"}
{"smiles": "CCOc1ccc(CN2CCNC(=O)C2CC(=O)NCc2csc(C(C)C)n2)cc1", "note": "(stereo unspecified)", "Potency": "inconclusive: 708 µM [inhibitor, single point]"}
{"smiles": "CCOC(=O)C1CCCCN1Cc1ccc(OC)c(OC)c1", "note": "(stereo unspecified)", "Potency": "inconclusive: 89.1 µM [inhibitor, partial curve, poor fit]"}
{"smiles": "O=C(N/N=C/c1ccccc1[N+](=O)[O-])c1ccc2c(c1)OCCO2", "Potency": "inactive"}
{"smiles": "Cc1ccc(/C=N/Nc2ccc(F)cc2F)s1", "Potency": "inconclusive: 28.2 µM [inhibitor, partial curve, poor fit]"}
{"smiles": "C=CCCC(=O)NC1CC(C)(C)Cc2c1cnn2-c1cccc(F)c1", "note": "(stereo unspecified)", "Potency": "inconclusive: 15.8 µM [inhibitor, partial curve, poor fit]"}
{"smiles": "Cc1ccc(SCCSc2nc(N)cc(=O)[nH]2)cc1", "Potency": "inconclusive: 89.1 µM [inhibitor, single point]"}
{"smiles": "Cn1cnnc1SCC(=O)Nc1ccccc1F", "Potency": "inactive"}
{"smiles": "O=C(CSc1nc(C2CC2)nc2ccccc12)Nc1cccc(O)c1", "Potency": "inconclusive: 12.6 µM [inhibitor, single point]"}
{"smiles": "COc1cccc(NC(=O)CCC(=O)Nc2cc(OC)c(NC(=O)c3cccs3)cc2OC)c1", "Potency": "inactive"}
{"smiles": "COc1ccc(CCNC(=O)c2ccccc2NS(=O)(=O)c2c(F)cccc2F)cc1", "Potency": "inconclusive: 22.4 µM [inhibitor, single point]"}
{"smiles": "CCOc1ccc(S(=O)(=O)N2CCC(C(=O)NCc3ccccn3)CC2)cc1C", "Potency": "inactive"}
{"smiles": "Cc1cccc(N2CC(C(=O)OCC(=O)Nc3sccc3C(N)=O)CC2=O)c1C", "note": "(stereo unspecified)", "Potency": "inactive"}
{"smiles": "CN1c2ccccc2C(O)=C(C(=O)Nc2ccccc2)S1(=O)=O", "Potency": "inconclusive: 1120 µM [inhibitor, single point]"}
{"smiles": "Cc1ccc(/C=C/C(=O)N2CC(=O)Nc3ccccc32)o1", "Potency": "inconclusive: 126 µM [activator, partial curve, poor fit]"}
{"smiles": "COc1ccc(C(=O)Nc2ccc(N3CCN(C)CC3)cc2)cc1", "Potency": "inactive"}
{"smiles": "O=C(CS(=O)c1cccc(C(F)(F)F)c1)Nc1ccccc1Cl", "note": "(stereo unspecified)", "Potency": "inactive"}
{"smiles": "COC(=O)C(Cc1ccc(O)cc1)NC(=O)C(CC(=O)OC(C)(C)C)NC(=O)OC(C)(C)C", "note": "(stereo unspecified) (Boc-Asp(OtBu)-Tyr-OMe; configuration not given here)", "Potency": "inconclusive: 100 µM [inhibitor, single point]"}
{"smiles": "COc1ccc(CNS(=O)(=O)c2cc3c(cc2Cl)NC(=O)CO3)cc1", "Potency": "inconclusive: 22.4 µM [inhibitor, partial curve]"}
{"smiles": "CC(=O)Oc1ccc2c(=O)c(-c3nc4ccccc4s3)coc2c1", "Potency": "inconclusive: 112 µM [inhibitor, single point]"}
{"smiles": "Oc1[nH]c2ccccc2c1N=Nc1ccccc1F", "activity, negative = inhibition": "inconclusive: 51.4% [activator]"}
{"smiles": "Cc1ccc(C(=O)c2c(NC(=O)c3ccccc3)sc(C)c2C)cc1", "Potency": "inconclusive: 31.6 µM [inhibitor, single point]"}
{"smiles": "O=c1[nH][nH]c2c(N=Cc3ccccc3O)ccc(F)c12", "Potency": "inactive"}
{"smiles": "CN(C)CCNc1ncnc2sc(-c3ccccc3)cc12", "Potency": "inconclusive: 112 µM [inhibitor, single point]"}
{"smiles": "CC1CCC2(CC1)NC(=O)N(CC(=O)Nc1cccnc1Cl)C2=O", "note": "(stereo unspecified)", "Potency": "inconclusive: 100 µM [inhibitor, single point]"}
{"smiles": "COc1ccc(/C=C2\\SC(=S)N(NS(=O)(=O)c3ccccc3)C2=O)c(OC)c1", "Potency": "inconclusive: 141 µM [inhibitor, single point]"}
{"smiles": "Nc1ccc2nc3c(=O)n(C4CCCCC4)c(=O)[nH]c3nc2c1", "Potency": "inconclusive: 25.1 µM [activator, partial curve]"}
{"smiles": "CCN(CC)CCNC(=O)c1[nH]c2ccc(OCc3ccccc3)cc2c1C", "Potency": "inactive"}
{"smiles": "CC1CCCN(c2ccc([N+](=O)[O-])s2)C1", "note": "(stereo unspecified)", "Potency": "inconclusive: 79.4 µM [inhibitor, partial curve]"}
{"smiles": "O=C(c1ccc2c(c1)OCCO2)N1CCN(c2ccc([N+](=O)[O-])cc2)CC1", "Potency": "inconclusive: 631 µM [inhibitor, partial curve, poor fit]"}
{"smiles": "O=C1CC(N(O)C2CC(=O)N(Cc3ccccc3)C2=O)C(=O)N1Cc1ccccc1", "note": "(stereo unspecified)", "Potency": "inactive"}
{"smiles": "COc1cccc(/C=N/n2c(-c3cc(C)[nH]n3)n[nH]c2=S)c1O", "Potency": "inactive"}
{"smiles": "Cc1cc(S(=O)(=O)Nc2c(C)nn(C)c2C)c(Cl)cc1Cl", "Potency": "inconclusive: 89.1 µM [inhibitor, single point]"}
{"smiles": "COc1ccc(S(=O)(=O)NCCSC(C)(C)C)c(Cl)c1Cl", "Potency": "inactive"}
